Results are given in words; binding and its absence hold for the method and conditions named.
Legend:
Experiment in all cases: protein binding radioassay
[1] = molecular target: kappa opioid receptor (KOR)
mu opioid receptor (MOR) = molecular target: mu opioid receptor (MOR)
[2] = molecular target: delta opioid receptor (DOR)

binding [1]: no binding
binding (mu opioid receptor (MOR)): no binding
binding [2]: no binding
B1: Odorranalectin (OL) (peptide)
peptide: YASPKCFRYPNGVLACT
modifications: cyclic through a disulfide bond Cys6-Cys16 (cyclo[C6...C16])
